Measured values: publication doi:10.1101/583740 (bioRxiv, 2019)
No constants are given. Whether binding was seen depends on the method and setting. Binding seen in cells or lysates may run through a third protein. Some entries that bind do so weakly or less than the wild type.

Target: T1, Endogenous SIRT1 (mouse (endogenous in MCF)) (UniProt Q923E4)
T1 sequence: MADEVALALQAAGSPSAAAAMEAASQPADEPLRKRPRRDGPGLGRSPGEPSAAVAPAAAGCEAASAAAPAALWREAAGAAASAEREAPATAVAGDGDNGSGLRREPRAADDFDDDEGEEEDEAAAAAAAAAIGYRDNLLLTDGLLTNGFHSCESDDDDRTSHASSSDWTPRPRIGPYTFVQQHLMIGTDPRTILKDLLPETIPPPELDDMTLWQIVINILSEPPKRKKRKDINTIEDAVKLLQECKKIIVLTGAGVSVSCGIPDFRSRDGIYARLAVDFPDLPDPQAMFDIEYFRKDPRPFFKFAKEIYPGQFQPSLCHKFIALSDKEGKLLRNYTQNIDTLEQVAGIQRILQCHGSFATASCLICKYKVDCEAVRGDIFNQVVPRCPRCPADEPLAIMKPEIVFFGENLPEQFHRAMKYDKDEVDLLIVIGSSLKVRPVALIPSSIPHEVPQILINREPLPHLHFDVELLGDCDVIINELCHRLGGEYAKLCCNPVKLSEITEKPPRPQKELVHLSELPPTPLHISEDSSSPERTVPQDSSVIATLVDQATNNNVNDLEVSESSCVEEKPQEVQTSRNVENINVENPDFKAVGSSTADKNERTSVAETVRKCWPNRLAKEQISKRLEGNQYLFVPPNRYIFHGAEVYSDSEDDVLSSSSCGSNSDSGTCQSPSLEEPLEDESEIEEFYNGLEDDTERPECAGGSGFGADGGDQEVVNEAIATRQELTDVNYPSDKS
Assay: co-IP

B1: Endogenous TRPC3 (protein, UniProt Q9QZC1 1-910)
chain: MSTKVKKCREPARVTLPAPEEEEDGEAEGGESQRRRRGWRGVNGGLEPPCPRAPPSPGPDASSEGSPSRWRTAGMRDKGRRQAVRGPAFMFGARGPSLTAEEERFLDAAEYGNIPVVRKMLEESRTLNVNCVDYMGQNALQLAVGNEHLEVTELLLKKENLARIGDALLLAISKGYVRIVEAILGHPGFAASRRLTLSPCEQELRDDDFYAYDEDGTRFSPDITPIILAAHCHKYEVVHLLLLKGARIERPHDYFCRCSDCAEKQRLDAFSHSRSRINAYKGLASPAYLSLSSEDPVLTALELSNELAKLANIEKEFKNDYRKLSMQCKDFVVGVLDLCRDSEEVEAILNGDLESAEPLERHGHKASLSRVKLAIKYEVKKFVAHPNCQQQLLTIWYENLSGLREQTIAIKCLVVLVVALGLPFLAIGYWIAPCSRLGKILRSPFMKFVAHAASFIIFLGLLVFNASDRFEGITTLPNITVIDYPKQIFRVKTTQFTWTEMLIMVWVLGMMWSECKELWLEGPREYIVQLWNVLDFGMLSIFIAAFTARFLAFLQATKAQQYVDSHVQESDLSEVTLPPEVQYFTYARDKWLPSDPQIISEGLYAIAVVLSFSRIAYILPANESFGPLQISLGRTVKDIFKFMVLFIMVFLAFMIGMFILYSYYLGAKVNPAFTTVEESFKTLFWSIFGLSEVTSVVLKYDHKFIENIGYVLYGIYNVTMVVVLLNMLIAMINSSYQEIEDDSDVEWKFARSKLWLSYFDDGKTLPPPFSLVPSPKSFVYFIMRITNFSKCRRRRLQKDLELGMGNSKSRLNLFTQSNSRVFESHSFNSILNQPTRYQQIMKRLIKRYVLKAQVDKENDEVNEGELKEIKQDISSLRYELLEDKSQATEELAILIHKLSEKLNPSVLRCE
- binding: binds
